According to doi:10.1101/334276:
Read-outs that look alike come from different tables or passages of the source. These are yes or no findings as the source states them, for the method shown. In cells and extracts the contact can be indirect. Some binding calls cover weakened binding; strength is not graded here. For some assays here: Where a sequence is shown, tags or fusion partners need not be part of it.

The chains behind the UniProt entries cited, without tags or fusion partners.
UniProt P62136: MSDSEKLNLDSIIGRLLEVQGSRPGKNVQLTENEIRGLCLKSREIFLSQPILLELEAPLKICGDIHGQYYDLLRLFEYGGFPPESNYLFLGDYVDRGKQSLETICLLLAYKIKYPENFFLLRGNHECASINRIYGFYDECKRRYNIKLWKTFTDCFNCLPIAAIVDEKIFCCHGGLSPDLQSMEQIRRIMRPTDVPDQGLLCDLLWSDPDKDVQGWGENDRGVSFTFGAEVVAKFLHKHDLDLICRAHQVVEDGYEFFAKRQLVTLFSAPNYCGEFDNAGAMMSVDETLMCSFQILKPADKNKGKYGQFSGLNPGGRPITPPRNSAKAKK
UniProt P35226: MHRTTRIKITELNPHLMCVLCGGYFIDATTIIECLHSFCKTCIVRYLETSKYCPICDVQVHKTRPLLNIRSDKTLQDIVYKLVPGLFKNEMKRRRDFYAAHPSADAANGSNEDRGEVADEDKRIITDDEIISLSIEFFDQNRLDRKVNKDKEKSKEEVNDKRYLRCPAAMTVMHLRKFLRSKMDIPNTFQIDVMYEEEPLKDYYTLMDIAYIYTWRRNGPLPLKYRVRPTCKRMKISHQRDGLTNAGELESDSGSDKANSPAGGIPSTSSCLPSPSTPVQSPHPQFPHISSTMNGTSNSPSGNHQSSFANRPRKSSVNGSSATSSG

Assays:
Experiment in all cases: co-IP
[1] = target: T1, V5-pRb (pLX304-pRb-V5) (UniProt P06400)
T1 sequence: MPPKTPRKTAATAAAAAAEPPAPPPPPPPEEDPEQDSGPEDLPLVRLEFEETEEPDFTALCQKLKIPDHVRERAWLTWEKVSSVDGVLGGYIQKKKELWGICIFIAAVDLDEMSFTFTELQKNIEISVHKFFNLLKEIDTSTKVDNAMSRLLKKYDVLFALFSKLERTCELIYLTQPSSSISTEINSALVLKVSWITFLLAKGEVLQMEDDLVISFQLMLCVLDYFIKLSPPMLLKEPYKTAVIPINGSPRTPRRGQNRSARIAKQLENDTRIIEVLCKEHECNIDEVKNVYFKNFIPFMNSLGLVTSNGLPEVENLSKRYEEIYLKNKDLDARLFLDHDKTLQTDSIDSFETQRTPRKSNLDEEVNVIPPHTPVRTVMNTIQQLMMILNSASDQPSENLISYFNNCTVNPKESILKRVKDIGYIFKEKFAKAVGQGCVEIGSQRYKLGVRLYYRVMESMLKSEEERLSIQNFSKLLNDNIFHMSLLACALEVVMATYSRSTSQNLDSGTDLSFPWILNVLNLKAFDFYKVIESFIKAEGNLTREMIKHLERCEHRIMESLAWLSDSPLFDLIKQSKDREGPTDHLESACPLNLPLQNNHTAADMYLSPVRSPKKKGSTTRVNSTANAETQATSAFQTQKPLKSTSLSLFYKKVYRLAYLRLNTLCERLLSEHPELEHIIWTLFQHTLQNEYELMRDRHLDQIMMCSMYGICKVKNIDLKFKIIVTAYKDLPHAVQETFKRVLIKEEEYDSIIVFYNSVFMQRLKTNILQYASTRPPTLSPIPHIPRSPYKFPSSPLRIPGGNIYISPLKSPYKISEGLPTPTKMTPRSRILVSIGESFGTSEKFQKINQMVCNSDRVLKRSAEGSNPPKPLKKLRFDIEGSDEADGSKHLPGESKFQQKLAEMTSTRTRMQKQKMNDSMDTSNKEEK

[2] = target: T2, RASSF6 (endogenous, SW480 cells) (human (endogenous in SW480)) (UniProt Q6ZTQ3)
T2 sequence: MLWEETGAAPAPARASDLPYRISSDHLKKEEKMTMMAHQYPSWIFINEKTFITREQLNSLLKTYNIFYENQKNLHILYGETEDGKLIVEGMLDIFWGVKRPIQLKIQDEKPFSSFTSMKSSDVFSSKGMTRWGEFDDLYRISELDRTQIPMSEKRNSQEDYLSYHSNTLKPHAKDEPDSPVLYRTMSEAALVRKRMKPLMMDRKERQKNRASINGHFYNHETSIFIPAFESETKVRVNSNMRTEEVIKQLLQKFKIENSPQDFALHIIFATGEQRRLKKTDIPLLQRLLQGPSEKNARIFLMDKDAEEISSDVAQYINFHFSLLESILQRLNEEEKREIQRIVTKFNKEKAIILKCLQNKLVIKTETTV

[3] = target: T2, RASSF6 (endogenous, SW480 cells) (human (endogenous in SW480)); remark: listed apart in the source
[4] = target: T3, FLAG-RASSF6 (pCIneoFHF-RASSF6) (UniProt Q6ZTQ3)
T3 sequence: T2 sequence

[5] = target: T1, V5-pRb (pLX304-pRb-V5); remark: listed apart in the source

In the case of “luciferase-fused PP1A (pCIneoLuc-PP1A) (from UniProt P62136 1-330) (enzyme)”, the binding [1] is reported as “binds”.

In the case of “polycomb complex protein BMI1 (endogenous, SW480 cells) (from UniProt P35226 1-326)”, the binding [2] is reported as “binds”.

B1: Retinoblastoma protein (endogenous, SW480 cells) (protein, UniProt P06400 1-928)
chain: T1 sequence
In the case of B1, the binding [3] is reported as “binds”.

B2: V5-pRb (pLX304-pRb-V5) (protein, UniProt P06400 1-928)
chain: T1 sequence
For B2, the binding [4] was “binds”.

B3: FLAG-RASSF6 (pCIneoFHF-RASSF6) (protein, UniProt Q6ZTQ3 1-369)
chain: T2 sequence
With B3 the binding [5] was “binds”.
